The supplement of paper PMC9015667
Where a name gives a salt, the structure may show the parent alone. The list shows a part of the results. Most values come without repeats; read them as rough.

Columns and labels:
Assay in all cases: reduction in cell viability relative to untreated/vehicle; higher = more growth inhibition
Conditions in all cases: 200 nM; 72 h
M229P = test system: M229P (parental melanoma line)
M229R = test system: M229R (matched melanoma line resistant to BRAF inhibitors)
M238P = test system: M238P (parental melanoma line)
M238R = test system: M238R (matched melanoma line resistant to BRAF inhibitors)
M249P = test system: M249P (parental melanoma line)
M249R = test system: M249R (matched melanoma line resistant to BRAF inhibitors)
UACC62P = test system: UACC62P (parental melanoma line)
UACC62R = test system: UACC62R (matched melanoma line resistant to BRAF inhibitors)

Compound | reduction in cell viability (M229P) [%] | reduction in cell viability (M229R) [%] | reduction in cell viability (M238P) [%] | reduction in cell viability (M238R) [%] | reduction in cell viability (M249P) [%] | reduction in cell viability (M249R) [%] | reduction in cell viability (UACC62P) [%] | reduction in cell viability (UACC62R) [%]
O=C1CCC[C@@H]2[C@H]3CCCN4CCC[C@@H](CN12)[C@@H]34 [Matrine] | < 0 | < 0 | < 0 | < 0 | < 0 | < 0 | < 0 | < 0
CCN(CC)C(=O)c1ccc(C2=CC3(CCNCC3)Oc3cccc(O)c32)cc1 | < 0 | < 0 | < 0 | < 0 | < 0 | < 0 | < 0 | < 0
O=C(O[C@H]1C[C@H]2CC[C@@H](C1)[N+]21CCCC1)C(O)(c1ccccc1)c1ccccc1 [Trospium chloride] | < 0 | < 0 | < 0 | < 0 | < 0 | < 0 | < 0 | < 0
Cc1ccccc1-n1c(Cn2ncc3c(N)ncnc32)nc2cccc(C)c2c1=O | < 0 | < 0 | < 0 | < 0 | < 0 | < 0 | 14.7 | < 0
C[C@]12CCC(=O)C=C1CC[C@@H]1[C@@H]2CC[C@@]2(C)[C@H]1CC[C@]2(C)O [17-Methyltestosterone] | < 0 | < 0 | < 0 | < 0 | < 0 | < 0 | < 0 | < 0
O=P1(NCCCl)OCCCN1CCCl (configuration not stated) [Ifomide] | < 0 | < 0 | < 0 | < 0 | < 0 | < 0 | < 0 | < 0
COc1cc2c(cc1OC)C1CC(=O)C(CC(C)C)CN1CC2 (configuration not stated) [Tetrabenazine] | < 0 | < 0 | < 0 | < 0 | < 0 | < 0 | < 0 | < 0
CC(C)[C@]12O[C@H]1[C@@H]1O[C@]13[C@]1(O[C@H]1C[C@H]1C4=C(CC[C@@]13C)C(=O)OC4)[C@@H]2O [Triptolide] | 80.8 | 70.2 | 86.1 | 72.9 | 91.4 | 89.3 | 86.5 | 74.7
COc1ccc(Cc2nccc3cc(OC)c(OC)cc23)cc1OC [Papaverine hydrochloride] | < 0 | < 0 | < 0 | < 0 | < 0 | < 0 | < 0 | 18.5
C[C@]12CC[C@H](O)CC1=CC[C@@H]1[C@@H]2CC[C@]2(C)C(=O)CC[C@@H]12 [Dehydroepiandrosterone] | < 0 | < 0 | < 0 | < 0 | < 0 | < 0 | < 0 | < 0
C=C(C)[C@H]1Cc2c(ccc3c2O[C@@H]2COc4cc(OC)c(OC)cc4[C@@H]2C3=O)O1 [Rotenone] | 7.66 | 18.5 | 25.7 | < 0 | 9.78 | 21.1 | 25.8 | 53.5
CCCC(C)(COC(N)=O)COC(=O)NC(C)C (configuration not stated) [Carisoprodol] | < 0 | < 0 | < 0 | < 0 | < 0 | < 0 | 3.19 | < 0
CO[C@H]1CC[C@@H](O[C@H]2C[C@H]([C@]3(C)CC[C@]4(C[C@H](O)[C@@H](C)[C@@H]([C@@H](C)/C=C(\C)C(=O)[C@H](C)C[C@H](C)C(=O)O)O4)O3)O[C@]3(O[C@@H]([C@H]4O[C@@](O)(CO)[C@H](C)C[C@@H]4C)C[C@@H]3C)[C@@H]2C)O[C@@H]1C [Nanchangmycin] | 16.1 | 28.4 | 37.6 | 27.6 | 9.07 | 46 | 21.4 | 45.7
COc1cc2cc(c1Cl)N(C)C(=O)C[C@H](OC(=O)C(C)C)[C@]1(C)O[C@@H]1[C@H](C)[C@@H]1C[C@@](O)(NC(=O)O1)[C@H](OC)/C=C/C=C(\C)C2 [Ansamitocin P3] | 28.5 | 38.2 | 41.6 | 63.3 | 61.7 | 46.4 | 56.9 | 88.9
COc1cccc2c1[C@]13CCN(CC4CC4)[C@H](C2)[C@]1(OC)CCC(=O)C3 [Cyprodime] | < 0 | < 0 | < 0 | < 0 | < 0 | < 0 | 9.74 | < 0
C[C@]12CC[C@@H]3c4ccc(OC(=O)N(CCCl)CCCl)cc4CC[C@H]3[C@@H]1CC[C@@H]2OP(=O)(O)O [Estramustine phosphate sodium] | < 0 | < 0 | < 0 | < 0 | < 0 | < 0 | < 0 | < 0
C=C1C[C@@H]2[C@H](CC[C@]3(C)C(=O)CC[C@@H]23)[C@@]2(C)C=CC(=O)C=C12 [Exemestane] | < 0 | < 0 | < 0 | < 0 | < 0 | < 0 | 7.48 | < 0
C[C@H]([C@H](O)CCC(C)(C)O)[C@H]1CC[C@@]2(O)C3=CC(=O)[C@@H]4C[C@@H](O)[C@@H](O)C[C@]4(C)[C@H]3CC[C@]12C [Ecdysone] | < 0 | < 0 | < 0 | < 0 | < 0 | 2.13 | 1.22 | < 0
C[C@]12CC[C@H]3[C@@H](CCC4=CC(=O)CC[C@@]43C)[C@@H]1CC[C@@H]2O [Testosterone] | < 0 | < 0 | < 0 | < 0 | < 0 | < 0 | < 0 | < 0
COc1cc([C@@H]2c3cc4c(cc3[C@H](O)[C@H]3COC(=O)[C@@H]23)OCO4)cc(OC)c1OC [Picropodophyllin] | 32.6 | 56.4 | 62.9 | 60.4 | 32.2 | 40.3 | 39.8 | 71

Compound | reduction in cell viability (M229P) [%] | reduction in cell viability (M229R) [%] | reduction in cell viability (M238P) [%] | reduction in cell viability (M238R) [%] | reduction in cell viability (M249P) [%] | reduction in cell viability (M249R) [%] | reduction in cell viability (UACC62P) [%] | reduction in cell viability (UACC62R) [%]
C[C@]12CC[C@H]3[C@@H](CCC4=CC(=O)CC[C@@]43C)[C@@H]1CC[C@@H]2OC(=O)CCC1CCCC1 [Testosterone cypionate] | < 0 | < 0 | < 0 | < 0 | < 0 | < 0 | < 0 | < 0
CC(O)(CS(=O)(=O)c1ccc(F)cc1)C(=O)Nc1ccc(C#N)c(C(F)(F)F)c1 (configuration not stated) [Bicalutamide] | < 0 | < 0 | < 0 | < 0 | < 0 | < 0 | < 0 | < 0
N#C[C@H](O[C@@H]1O[C@H](CO[C@@H]2O[C@H](CO)[C@@H](O)[C@H](O)[C@H]2O)[C@@H](O)[C@H](O)[C@H]1O)c1ccccc1 [Amygdalin] | < 0 | < 0 | < 0 | < 0 | < 0 | < 0 | < 0 | < 0
N.N.[Cl][Pt][Cl] [Cisplatin] | < 0 | < 0 | < 0 | < 0 | < 0 | < 0 | < 0 | < 0
CCCC[N+]1(C)[C@@H]2C[C@@H](OC(=O)[C@H](CO)c3ccccc3)C[C@H]1[C@@H]1O[C@@H]12 (some centres not stated) [Butylscopolamine bromide] | < 0 | < 0 | < 0 | < 0 | < 0 | < 0 | < 0 | < 0
O=C(Nc1ccncc1)C(=O)c1cn(Cc2ccc(Cl)cc2)c2ccccc12 [Indibulin] | 18.4 | 33.5 | 70.8 | 65.4 | 60 | 42.1 | 46.2 | 87
O=c1[nH]c2ccccc2n1C1CCN(Cc2ccc(-c3[nH]c4cc5ncnc5cc4nc3-c3ccccc3)cc2)CC1 [AKT inhibitor VIII] | < 0 | < 0 | < 0 | < 0 | < 0 | < 0 | < 0 | < 0
C1=C2CCCN[C@H]2[C@@H]2C[C@H]1[C@H]1CCCCN1C2 [Aloperine] | < 0 | < 0 | < 0 | < 0 | < 0 | < 0 | < 0 | < 0
CC1(N2CCC(n3c([C@@H]4CCCNC4)nc4ccccc43)CC2)CCCCCCC1 | 3.02 | < 0 | < 0 | < 0 | < 0 | 17.5 | 3.93 | < 0
COC1(C[S@+]([O-])c2ccccc2)CCN(CCc2c[nH]c3ccc(F)cc23)CC1 | < 0 | < 0 | < 0 | < 0 | < 0 | < 0 | < 0 | < 0
C[C@@H]1CC[C@@]2(OC1)O[C@H]1C[C@H]3[C@@H]4CC=C5C[C@@H](O[C@@H]6O[C@H](CO)[C@@H](O[C@@H]7O[C@@H](C)[C@H](O)[C@@H](O)[C@H]7O)[C@H](O)[C@H]6O[C@@H]6O[C@@H](C)[C@H](O)[C@@H](O)[C@H]6O)CC[C@]5(C)[C@H]4CC[C@]3(C)[C@H]1[C@@H]2C [Dioscin] | < 0 | < 0 | < 0 | < 0 | < 0 | < 0 | < 0 | < 0
COC(=O)C1=CCCN(C)C1 [Arecoline] | < 0 | < 0 | < 0 | < 0 | < 0 | < 0 | < 0 | < 0
Clc1ccccc1C(c1ccccc1)(c1ccccc1)n1cccn1 | < 0 | < 0 | < 0 | < 0 | < 0 | < 0 | 3.99 | < 0
Cc1c(C(=O)Nc2cccc(C(F)(F)F)c2)cc(-c2ccccc2)n1CCCN1CCOCC1 | < 0 | < 0 | < 0 | 72.9 | 2.14 | < 0 | 32.2 | < 0
COc1cc2c(c(OC)c1OC)-c1ccc(OC)c(=O)cc1[C@@H](NC(C)=O)CC2 [Colchicine] | 41.3 | 50.7 | 63.5 | 72.6 | 62.3 | 58.6 | 55.4 | 75.3
CCOC(=O)c1cncn1[C@H](C)c1ccccc1 [Etomidate] | < 0 | < 0 | < 0 | < 0 | < 0 | < 0 | < 0 | < 0
CCNC(=O)C[C@H]1N=C(c2ccc(Cl)cc2)c2cc(OC)ccc2-n2c(C)nnc21 | < 0 | < 0 | < 0 | < 0 | < 0 | < 0 | < 0 | < 0
CCN(C)C(=O)Oc1cccc([C@H](C)N(C)C)c1 [Rivastigmine tartrate] | < 0 | < 0 | < 0 | < 0 | < 0 | < 0 | < 0 | < 0
C[C@H]1CCC/C=C/[C@@H]2C[C@H](O)C[C@H]2[C@H](O)/C=C/C(=O)O1 [Cyanein] | 56.7 | 60.1 | 46.8 | 49.4 | 58.5 | 76.9 | 49.2 | 54.3

Shown with each value named: 2 of the compounds above.
N.N.[Cl][Pt][Cl] [Cisplatin]
  reduction in cell viability (M229P) [%]: < 0; reduction in cell viability (M229R) [%]: < 0; reduction in cell viability (M238P) [%]: < 0; reduction in cell viability (M238R) [%]: < 0; reduction in cell viability (M249P) [%]: < 0; reduction in cell viability (M249R) [%]: < 0; reduction in cell viability (UACC62P) [%]: < 0; reduction in cell viability (UACC62R) [%]: < 0
CCCC[N+]1(C)[C@@H]2C[C@@H](OC(=O)[C@H](CO)c3ccccc3)C[C@H]1[C@@H]1O[C@@H]12 (some centres not stated) [Butylscopolamine bromide]
  reduction in cell viability (M229P) [%]: < 0; reduction in cell viability (M229R) [%]: < 0; reduction in cell viability (M238P) [%]: < 0; reduction in cell viability (M238R) [%]: < 0; reduction in cell viability (M249P) [%]: < 0; reduction in cell viability (M249R) [%]: < 0; reduction in cell viability (UACC62P) [%]: < 0; reduction in cell viability (UACC62R) [%]: < 0
